Experimental data taken from paper doi:10.1101/2025.07.06.663376.
No constants are given. Whether binding was seen depends on the method and setting. Binding seen in cells or lysates may run through a third protein. Some results given as binding are weak or reduced against the parent protein; the word gives no strength. Blank lines part the entries; values can stand above or below the substance they belong to.

Protein sequences, listed by entry. Tags and fused reporters are not part of them.
UniProt O00762: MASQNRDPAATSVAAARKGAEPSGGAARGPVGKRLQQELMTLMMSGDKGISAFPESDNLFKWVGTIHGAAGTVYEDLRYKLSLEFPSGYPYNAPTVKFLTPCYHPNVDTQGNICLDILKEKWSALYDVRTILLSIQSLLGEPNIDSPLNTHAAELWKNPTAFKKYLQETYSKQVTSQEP
UniProt Q9NYG5: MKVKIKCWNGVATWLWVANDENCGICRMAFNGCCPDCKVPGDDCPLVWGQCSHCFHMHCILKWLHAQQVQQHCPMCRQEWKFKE
UniProt P07355: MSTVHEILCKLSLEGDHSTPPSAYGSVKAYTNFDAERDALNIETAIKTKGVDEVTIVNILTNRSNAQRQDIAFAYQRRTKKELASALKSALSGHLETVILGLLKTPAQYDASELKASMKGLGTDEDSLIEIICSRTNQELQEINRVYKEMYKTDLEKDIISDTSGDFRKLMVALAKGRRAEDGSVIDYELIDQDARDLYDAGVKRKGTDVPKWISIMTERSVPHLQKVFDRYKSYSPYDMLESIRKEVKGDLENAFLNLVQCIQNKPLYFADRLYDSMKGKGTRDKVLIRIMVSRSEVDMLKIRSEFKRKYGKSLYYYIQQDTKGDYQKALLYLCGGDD

Columns and labels:
Experiment in all cases: co-IP
[1] = target: FLAG-tagged UBE2C (UBE2C-FLAG) (UniProt O00762)
APC11-HA = APC11-HA (UniProt Q9NYG5)
ANXA2-HA = ANXA2-HA (UniProt P07355)

binding [1]: binds
Substance: ANXA2-HA (from UniProt P07355 1-339)

binding (APC11-HA): binds
Substance: FLAG-tagged ANXA2 (ANXA2-FLAG) (from UniProt P07355 1-339)

binding (ANXA2-HA): binds
Substance: FLAG-tagged UBE2C (UBE2C-FLAG) (from UniProt O00762 1-179) (enzyme)
